# Assay results as given in patent publication US20260092179A1, “GENETICALLY MODIFIED HOST CELLS PRODUCING VIOLACEIN, ANALOGUES, AND DERIVATIVES THEREOF” (OCTARINE BIO APS, priority 2022, published 2026).
# What was measured:
# [1] = Direct dyeing of fabrics with pigments in lipophilic in situ extractants diluted in ethanol (ΔE); conditions: vs undyed fabric
# [2] = Direct dyeing of fabrics with purified pigments dissolved in 100% ethanol (colour coordinates, ΔE); conditions: dye bath 100% ethanol, room temperature, 30 minutes; for ΔE: vs undyed fabric
# [3] = Direct dyeing of nylon 6,6 with deoxyviolacein Antifoam-A extract diluted in water
# [4] = Bleached cotton, dye bath 90% ethanol 10% isopropyl myristate, room temperature, 30 minutes
# [5] = Denim, dye bath 90% ethanol 10% isopropyl myristate, room temperature, 30 minutes
# [6] = Diacetate, dye bath 90% ethanol 10% isopropyl myristate, room temperature, 30 minutes
# [7] = Hemp, dye bath 90% ethanol 10% isopropyl myristate, room temperature, 30 minutes
# [8] = Nylon 6,6, dye bath 90% ethanol 10% isopropyl myristate, room temperature, 30 minutes
# [9] = Polyester, dye bath 90% ethanol 10% isopropyl myristate, room temperature, 30 minutes
# [10] = Silk, dye bath 90% ethanol 10% isopropyl myristate, room temperature, 30 minutes
# [11] = Viscose, dye bath 90% ethanol 10% isopropyl myristate, room temperature, 30 minutes
# [12] = Wool, dye bath 90% ethanol 10% isopropyl myristate, room temperature, 30 minutes
# [13] = nylon 6,6, extract diluted in water to approx. 1% Antifoam-A, room temperature overnight
smiles,measurement,setting,value
O=C1N=C(c2c[nH]c3ccccc23)C=C1c1c[nH]c2ccccc12 [prodeoxyviolacein],ΔE,[1]; [4],16.62
same,ΔE,[1]; [5],19.44
same,ΔE,[1]; [6],23.62
same,ΔE,[1]; [7],4.41
same,ΔE,[1]; [8],36.78
same,ΔE,[1]; [9],16.96
same,ΔE,[1]; [10],6.08
same,ΔE,[1]; [11],7.23
same,ΔE,[1]; [12],11.26
same,L,[2]; Bleached cotton,74.15
same,a,[2]; Bleached cotton,2.01
same,b,[2]; Bleached cotton,4.43
same,ΔE,[2]; Bleached cotton,15.86
same,L,[2]; Denim,73.29
same,a,[2]; Denim,3.33
same,b,[2]; Denim,5.2
same,ΔE,[2]; Denim,19.44
same,L,[2]; Diacetate,67.15
same,a,[2]; Diacetate,1.39
same,b,[2]; Diacetate,9.16
same,ΔE,[2]; Diacetate,21.05
same,L,[2]; Hemp,80.4
same,a,[2]; Hemp,0.87
same,b,[2]; Hemp,4.4
same,ΔE,[2]; Hemp,11.01
same,L,"[2]; Nylon 6,6",61.99
same,a,"[2]; Nylon 6,6",1.4
same,b,"[2]; Nylon 6,6",6
same,ΔE,"[2]; Nylon 6,6",27.44
same,L,[2]; Polyester,71.81
same,a,[2]; Polyester,−0.85
same,b,[2]; Polyester,3.08
same,ΔE,[2]; Polyester,17.57
same,L,[2]; Silk,74.63
same,a,[2]; Silk,−0.01
same,b,[2]; Silk,5.09
same,ΔE,[2]; Silk,15.89
same,L,[2]; Viscose,70.58
same,a,[2]; Viscose,1.7
same,b,[2]; Viscose,4.57
same,ΔE,[2]; Viscose,17.25
same,L,[2]; Wool,65.86
same,a,[2]; Wool,−1.83
same,b,[2]; Wool,6.18
same,ΔE,[2]; Wool,18.19
O=C1NC(c2c[nH]c3ccc(O)cc23)=C/C1=C1\C(=O)Nc2ccccc21 [violacein],ΔE,[1]; [4],35.32
same,ΔE,[1]; [5],33.65
same,ΔE,[1]; [6],54.78
same,ΔE,[1]; [7],28.03
same,ΔE,[1]; [8],70.93
same,ΔE,[1]; [9],19.63
same,ΔE,[1]; [10],25.60
same,ΔE,[1]; [11],33.31
same,ΔE,[1]; [12],28.50
same,L,[2]; Bleached cotton,63.39
same,a,[2]; Bleached cotton,4.95
same,b,[2]; Bleached cotton,−5.28
same,ΔE,[2]; Bleached cotton,26.95
same,L,[2]; Denim,60.57
same,a,[2]; Denim,0.77
same,b,[2]; Denim,−10.83
same,ΔE,[2]; Denim,33.65
same,L,[2]; Diacetate,46
same,a,[2]; Diacetate,9.04
same,b,[2]; Diacetate,−9.93
same,ΔE,[2]; Diacetate,42.18
same,L,[2]; Hemp,70.83
same,a,[2]; Hemp,2.66
same,b,[2]; Hemp,−6.04
same,ΔE,[2]; Hemp,20.87
same,L,"[2]; Nylon 6,6",42.55
same,a,"[2]; Nylon 6,6",5.15
same,b,"[2]; Nylon 6,6",−15.59
same,ΔE,"[2]; Nylon 6,6",48.45
same,L,[2]; Polyester,68.51
same,a,[2]; Polyester,2.89
same,b,[2]; Polyester,−0.37
same,ΔE,[2]; Polyester,20.67
same,L,[2]; Silk,72.14
same,a,[2]; Silk,3.83
same,b,[2]; Silk,−5.27
same,ΔE,[2]; Silk,19.22
same,L,[2]; Viscose,64.89
same,a,[2]; Viscose,−0.95
same,b,[2]; Viscose,−2.06
same,ΔE,[2]; Viscose,23.50
same,L,[2]; Wool,64.53
same,a,[2]; Wool,0.76
same,b,[2]; Wool,1.21
same,ΔE,[2]; Wool,19.76
O=C1NC(c2c[nH]c3ccccc23)=C/C1=C1\C(=O)Nc2ccccc21 [deoxyviolacein],colour coordinate L,[3]; [13],21.23
same,colour coordinate a,[3]; [13],7.43
same,colour coordinate b,[3]; [13],−16.54
same,ΔE,"[3]; nylon 6,6, versus undyed fabric control",32.31
same,ΔE,"[1]; 66% ethanol 33% Castor oil FAME, Acrylic, room temperature 30 minutes",25.0
same,ΔE,"[1]; 66% ethanol 33% Castor oil FAME, Bleached cotton, room temperature 30 minutes",28.7
same,ΔE,"[1]; 66% ethanol 33% Castor oil FAME, Diacetate, room temperature 30 minutes",41.9
same,ΔE,"[1]; 66% ethanol 33% Castor oil FAME, Nylon 6,6, room temperature 30 minutes",48.7
same,ΔE,"[1]; 66% ethanol 33% Castor oil FAME, Polyester, room temperature 30 minutes",36.2
same,ΔE,"[1]; 66% ethanol 33% Castor oil FAME, Wool, room temperature 30 minutes",27.0
same,ΔE,"[1]; 66% ethanol 33% Ethyl laureate, Acrylic, room temperature 30 minutes",22.1
same,ΔE,"[1]; 66% ethanol 33% Ethyl laureate, Bleached cotton, room temperature 30 minutes",31.3
same,ΔE,"[1]; 66% ethanol 33% Ethyl laureate, Diacetate, room temperature 30 minutes",51.5
same,ΔE,"[1]; 66% ethanol 33% Ethyl laureate, Nylon 6,6, room temperature 30 minutes",55.6
same,ΔE,"[1]; 66% ethanol 33% Ethyl laureate, Polyester, room temperature 30 minutes",28.5
same,ΔE,"[1]; 66% ethanol 33% Ethyl laureate, Wool, room temperature 30 minutes",25.9
same,ΔE,"[1]; 66% ethanol 33% Grapeseed oil, Acrylic, room temperature 30 minutes",18.2
same,ΔE,"[1]; 66% ethanol 33% Grapeseed oil, Bleached cotton, room temperature 30 minutes",28.5
same,ΔE,"[1]; 66% ethanol 33% Grapeseed oil, Diacetate, room temperature 30 minutes",55.4
same,ΔE,"[1]; 66% ethanol 33% Grapeseed oil, Nylon 6,6, room temperature 30 minutes",59.9
same,ΔE,"[1]; 66% ethanol 33% Grapeseed oil, Polyester, room temperature 30 minutes",24.7
same,ΔE,"[1]; 66% ethanol 33% Grapeseed oil, Wool, room temperature 30 minutes",22.0
same,ΔE,"[1]; 66% ethanol 33% Isopropyl palmitate, Acrylic, room temperature 30 minutes",25.9
same,ΔE,"[1]; 66% ethanol 33% Isopropyl palmitate, Bleached cotton, room temperature 30 minutes",35.2
same,ΔE,"[1]; 66% ethanol 33% Isopropyl palmitate, Diacetate, room temperature 30 minutes",58.7
same,ΔE,"[1]; 66% ethanol 33% Isopropyl palmitate, Nylon 6,6, room temperature 30 minutes",61.9
same,ΔE,"[1]; 66% ethanol 33% Isopropyl palmitate, Polyester, room temperature 30 minutes",29.1
same,ΔE,"[1]; 66% ethanol 33% Isopropyl palmitate, Wool, room temperature 30 minutes",27.1
same,ΔE,"[1]; 66% ethanol 33% Polysorbate 20, Acrylic, room temperature 30 minutes",3.4
same,ΔE,"[1]; 66% ethanol 33% Polysorbate 20, Bleached cotton, room temperature 30 minutes",10.6
same,ΔE,"[1]; 66% ethanol 33% Polysorbate 20, Diacetate, room temperature 30 minutes",20.6
same,ΔE,"[1]; 66% ethanol 33% Polysorbate 20, Nylon 6,6, room temperature 30 minutes",32.4
same,ΔE,"[1]; 66% ethanol 33% Polysorbate 20, Polyester, room temperature 30 minutes",11.5
same,ΔE,"[1]; 66% ethanol 33% Polysorbate 20, Wool, room temperature 30 minutes",10.7
same,ΔE,[1]; [4],30.37
same,ΔE,[1]; [5],38.02
same,ΔE,[1]; [6],53.26
same,ΔE,[1]; [7],13.80
same,ΔE,[1]; [8],64.59
same,ΔE,[1]; [9],27.02
same,ΔE,[1]; [10],21.85
same,ΔE,[1]; [11],28.07
same,ΔE,[1]; [12],26.36
same,L,[2]; Bleached cotton,64.7
same,a,[2]; Bleached cotton,2.55
same,b,[2]; Bleached cotton,−7.44
same,ΔE,[2]; Bleached cotton,25.98
same,L,[2]; Denim,55.38
same,a,[2]; Denim,2.59
same,b,[2]; Denim,−8.78
same,ΔE,[2]; Denim,38.02
same,L,[2]; Diacetate,46.46
same,a,[2]; Diacetate,10.78
same,b,[2]; Diacetate,−13.47
same,ΔE,[2]; Diacetate,43.10
same,L,[2]; Hemp,75.81
same,a,[2]; Hemp,1.7
same,b,[2]; Hemp,−5.6
same,ΔE,[2]; Hemp,15.97
same,L,"[2]; Nylon 6,6",44.17
same,a,"[2]; Nylon 6,6",2.55
same,b,"[2]; Nylon 6,6",−14.56
same,ΔE,"[2]; Nylon 6,6",46.42
same,L,[2]; Polyester,67.73
same,a,[2]; Polyester,0.17
same,b,[2]; Polyester,0.03
same,ΔE,[2]; Polyester,21.29
same,L,[2]; Silk,72.02
same,a,[2]; Silk,2.4
same,b,[2]; Silk,−2.37
same,ΔE,[2]; Silk,18.38
same,L,[2]; Viscose,62.42
same,a,[2]; Viscose,2.98
same,b,[2]; Viscose,−1.89
same,ΔE,[2]; Viscose,25.86
same,L,[2]; Wool,62.08
same,a,[2]; Wool,−1.13
same,b,[2]; Wool,1.71
same,ΔE,[2]; Wool,22.14
O=C1N=C(c2c[nH]c3ccc(O)cc23)C=C1c1c[nH]c2ccccc12 [proviolacein],ΔE,[1]; [4],18.99
same,ΔE,[1]; [5],15.82
same,ΔE,[1]; [6],20.07
same,ΔE,[1]; [7],10.32
same,ΔE,[1]; [8],35.99
same,ΔE,[1]; [9],19.97
same,ΔE,[1]; [10],13.00
same,ΔE,[1]; [11],14.79
same,ΔE,[1]; [12],13.90
same,L,[2]; Bleached cotton,77.07
same,a,[2]; Bleached cotton,3.28
same,b,[2]; Bleached cotton,2.46
same,ΔE,[2]; Bleached cotton,12.77
same,L,[2]; Denim,73.29
same,a,[2]; Denim,3.33
same,b,[2]; Denim,5.2
same,ΔE,[2]; Denim,19.44
same,L,[2]; Diacetate,70.57
same,a,[2]; Diacetate,2.52
same,b,[2]; Diacetate,5.61
same,ΔE,[2]; Diacetate,16.60
same,L,[2]; Hemp,84.21
same,a,[2]; Hemp,2.59
same,b,[2]; Hemp,3.19
same,ΔE,[2]; Hemp,7.26
same,L,"[2]; Nylon 6,6",64.73
same,a,"[2]; Nylon 6,6",3.29
same,b,"[2]; Nylon 6,6",2.07
same,ΔE,"[2]; Nylon 6,6",24.14
same,L,[2]; Polyester,74.88
same,a,[2]; Polyester,−0.22
same,b,[2]; Polyester,1.66
same,ΔE,[2]; Polyester,14.28
same,L,[2]; Silk,82.02
same,a,[2]; Silk,1.68
same,b,[2]; Silk,3.73
same,ΔE,[2]; Silk,8.50
same,L,[2]; Viscose,78.01
same,a,[2]; Viscose,0.84
same,b,[2]; Viscose,7.88
same,ΔE,[2]; Viscose,10.91
same,L,[2]; Wool,70.77
same,a,[2]; Wool,−0.51
same,b,[2]; Wool,5.17
same,ΔE,[2]; Wool,13.14
